# Results published in the supplement of paper PMC6078165.
# Experiments:
# [1] = tested on: BT20; assay: relative JC-1 red fluorescence (viability) vs pre-drug, monoculture (fraction); higher = more viable cancer cells; conditions: coculture fibroblast: none (monoculture)
# Protocol: (§1)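 JC-1 labelled TNBC cells grown in monoculture (density kept equal with unlabelled cancer cells) in 384-well plates in FluoroBrite medium, treated with one of 42 anticancer drugs at 0.1, 1, 10 or 100 uM. JC-1 red fluorescence (mitochondrial integrity, surrogate of apoptotic death) was read by plate reader every 8 h for 72 h. Values are normalised to each well's pre-drug value, with background from alamethicin. The stock of one drug was tenfold lower, so its dose labels may be too high. Monoculture values are repeated alongside each fibroblast plate and are averaged here.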
# [2] = tested on: HCC1143; assay: as above; conditions: coculture fibroblast: none (monoculture)
# Protocol: as §1
smiles,measurement,setting,value
CC(=O)c1c(C)c2cnc(Nc3ccc(N4CCNCC4)cn3)nc2n(C2CCCC2)c1=O [Palbociclib],relative JC-1 red fluorescence,"[1]; 0.1 µM, 8 h",0.9443 ± 0.0074
same,relative JC-1 red fluorescence,"[1]; 0.1 µM, 16 h",0.86256 ± 0.00071
same,relative JC-1 red fluorescence,"[1]; 0.1 µM, 24 h",0.7924 ± 0.0056
same,relative JC-1 red fluorescence,"[1]; 0.1 µM, 32 h",0.736 ± 0.0076
same,relative JC-1 red fluorescence,"[1]; 0.1 µM, 40 h",0.7052 ± 0.0035
same,relative JC-1 red fluorescence,"[1]; 0.1 µM, 48 h",0.6849 ± 0.0029
same,relative JC-1 red fluorescence,"[1]; 0.1 µM, 56 h",0.6558 ± 0.0034
same,relative JC-1 red fluorescence,"[1]; 0.1 µM, 64 h",0.637 ± 0.0075
same,relative JC-1 red fluorescence,"[1]; 0.1 µM, 72 h",0.62114 ± 0.00027
same,relative JC-1 red fluorescence,"[1]; 1 µM, 8 h",0.9394 ± 0.0018
same,relative JC-1 red fluorescence,"[1]; 1 µM, 16 h",0.914 ± 0.013
same,relative JC-1 red fluorescence,"[1]; 1 µM, 24 h",0.868 ± 0.016
same,relative JC-1 red fluorescence,"[1]; 1 µM, 32 h",0.816 ± 0.01
same,relative JC-1 red fluorescence,"[1]; 1 µM, 40 h",0.7684 ± 0.0064
same,relative JC-1 red fluorescence,"[1]; 1 µM, 48 h",0.768 ± 0.014
same,relative JC-1 red fluorescence,"[1]; 1 µM, 56 h",0.723 ± 0.012
same,relative JC-1 red fluorescence,"[1]; 1 µM, 64 h",0.704 ± 0.011
same,relative JC-1 red fluorescence,"[1]; 1 µM, 72 h",0.692 ± 0.0072
same,relative JC-1 red fluorescence,"[1]; 10 µM, 8 h",0.877 ± 0.051
same,relative JC-1 red fluorescence,"[1]; 10 µM, 16 h",0.801 ± 0.1
same,relative JC-1 red fluorescence,"[1]; 10 µM, 24 h",0.879 ± 0.016
same,relative JC-1 red fluorescence,"[1]; 10 µM, 32 h",0.904 ± 0.093
same,relative JC-1 red fluorescence,"[1]; 10 µM, 40 h",0.768 ± 0.048
same,relative JC-1 red fluorescence,"[1]; 10 µM, 48 h",0.877 ± 0.052
same,relative JC-1 red fluorescence,"[1]; 10 µM, 56 h",0.7466 ± 0.0068
same,relative JC-1 red fluorescence,"[1]; 10 µM, 64 h",0.808 ± 0.024
same,relative JC-1 red fluorescence,"[1]; 10 µM, 72 h",0.864 ± 0.14
same,relative JC-1 red fluorescence,"[1]; 100 µM, 8 h",0.886 ± 0.023
same,relative JC-1 red fluorescence,"[1]; 100 µM, 16 h",0.579 ± 0.059
same,relative JC-1 red fluorescence,"[1]; 100 µM, 24 h",0.36 ± 0.027
same,relative JC-1 red fluorescence,"[1]; 100 µM, 32 h",0.294 ± 0.041
same,relative JC-1 red fluorescence,"[1]; 100 µM, 40 h",0.263 ± 0.035
same,relative JC-1 red fluorescence,"[1]; 100 µM, 48 h",0.24 ± 0.033
same,relative JC-1 red fluorescence,"[1]; 100 µM, 56 h",0.216 ± 0.031
same,relative JC-1 red fluorescence,"[1]; 100 µM, 64 h",0.2 ± 0.027
same,relative JC-1 red fluorescence,"[1]; 100 µM, 72 h",0.184 ± 0.031
same,relative JC-1 red fluorescence,"[2]; 0.1 µM, 8 h",0.8827 ± 0.0036
same,relative JC-1 red fluorescence,"[2]; 0.1 µM, 16 h",0.787 ± 0.011
same,relative JC-1 red fluorescence,"[2]; 0.1 µM, 24 h",0.6992 ± 0.0059
same,relative JC-1 red fluorescence,"[2]; 0.1 µM, 32 h",0.633 ± 0.011
same,relative JC-1 red fluorescence,"[2]; 0.1 µM, 40 h",0.574 ± 0.0093
same,relative JC-1 red fluorescence,"[2]; 0.1 µM, 48 h",0.523 ± 0.0086
same,relative JC-1 red fluorescence,"[2]; 0.1 µM, 56 h",0.493 ± 0.0095
same,relative JC-1 red fluorescence,"[2]; 0.1 µM, 64 h",0.457 ± 0.01
same,relative JC-1 red fluorescence,"[2]; 0.1 µM, 72 h",0.4275 ± 0.004
same,relative JC-1 red fluorescence,"[2]; 1 µM, 8 h",0.9026 ± 0.0053
same,relative JC-1 red fluorescence,"[2]; 1 µM, 16 h",0.83762 ± 0.0006
same,relative JC-1 red fluorescence,"[2]; 1 µM, 24 h",0.7811 ± 0.0024
same,relative JC-1 red fluorescence,"[2]; 1 µM, 32 h",0.7344 ± 0.00039
same,relative JC-1 red fluorescence,"[2]; 1 µM, 40 h",0.6948 ± 0.0037
same,relative JC-1 red fluorescence,"[2]; 1 µM, 48 h",0.6514 ± 0.002
same,relative JC-1 red fluorescence,"[2]; 1 µM, 56 h",0.6208 ± 0.0011
same,relative JC-1 red fluorescence,"[2]; 1 µM, 64 h",0.596 ± 0.0075
same,relative JC-1 red fluorescence,"[2]; 1 µM, 72 h",0.573 ± 0.011
same,relative JC-1 red fluorescence,"[2]; 10 µM, 8 h",0.969 ± 0.025
same,relative JC-1 red fluorescence,"[2]; 10 µM, 16 h",0.936 ± 0.034
same,relative JC-1 red fluorescence,"[2]; 10 µM, 24 h",0.894 ± 0.025
same,relative JC-1 red fluorescence,"[2]; 10 µM, 32 h",0.857 ± 0.017
same,relative JC-1 red fluorescence,"[2]; 10 µM, 40 h",0.799 ± 0.012
same,relative JC-1 red fluorescence,"[2]; 10 µM, 48 h",0.746 ± 0.014
same,relative JC-1 red fluorescence,"[2]; 10 µM, 56 h",0.70834 ± 0.0004
same,relative JC-1 red fluorescence,"[2]; 10 µM, 64 h",0.6717 ± 0.0043
same,relative JC-1 red fluorescence,"[2]; 10 µM, 72 h",0.6422 ± 0.0032
same,relative JC-1 red fluorescence,"[2]; 100 µM, 8 h",0.547 ± 0.32
same,relative JC-1 red fluorescence,"[2]; 100 µM, 16 h",0.356 ± 0.24
same,relative JC-1 red fluorescence,"[2]; 100 µM, 24 h",0.198 ± 0.12
same,relative JC-1 red fluorescence,"[2]; 100 µM, 32 h",0.113 ± 0.062
same,relative JC-1 red fluorescence,"[2]; 100 µM, 40 h",0.0798 ± 0.047
same,relative JC-1 red fluorescence,"[2]; 100 µM, 48 h",0.0657 ± 0.04
same,relative JC-1 red fluorescence,"[2]; 100 µM, 56 h",0.0529 ± 0.038
same,relative JC-1 red fluorescence,"[2]; 100 µM, 64 h",0.0449 ± 0.036
same,relative JC-1 red fluorescence,"[2]; 100 µM, 72 h",0.0348 ± 0.03

# Reformatted as tab-separated lines: entries from further up
smiles	measurement	setting	value
CC(=O)c1c(C)c2cnc(Nc3ccc(N4CCNCC4)cn3)nc2n(C2CCCC2)c1=O [Palbociclib]	relative JC-1 red fluorescence	[2]; 1 µM, 56 h	0.6208 ± 0.0011
same	relative JC-1 red fluorescence	[2]; 1 µM, 64 h	0.596 ± 0.0075
same	relative JC-1 red fluorescence	[2]; 1 µM, 72 h	0.573 ± 0.011
same	relative JC-1 red fluorescence	[2]; 10 µM, 8 h	0.969 ± 0.025
same	relative JC-1 red fluorescence	[2]; 10 µM, 16 h	0.936 ± 0.034
same	relative JC-1 red fluorescence	[2]; 10 µM, 24 h	0.894 ± 0.025
same	relative JC-1 red fluorescence	[2]; 10 µM, 32 h	0.857 ± 0.017
same	relative JC-1 red fluorescence	[2]; 10 µM, 40 h	0.799 ± 0.012
same	relative JC-1 red fluorescence	[2]; 10 µM, 48 h	0.746 ± 0.014
same	relative JC-1 red fluorescence	[2]; 10 µM, 56 h	0.70834 ± 0.0004
same	relative JC-1 red fluorescence	[2]; 10 µM, 64 h	0.6717 ± 0.0043
same	relative JC-1 red fluorescence	[2]; 10 µM, 72 h	0.6422 ± 0.0032
same	relative JC-1 red fluorescence	[2]; 100 µM, 8 h	0.547 ± 0.32
same	relative JC-1 red fluorescence	[2]; 100 µM, 16 h	0.356 ± 0.24
same	relative JC-1 red fluorescence	[2]; 100 µM, 24 h	0.198 ± 0.12
same	relative JC-1 red fluorescence	[2]; 100 µM, 32 h	0.113 ± 0.062

# ± gives the standard deviation of the averaged measurements. The reference is the same well before dosing, and untreated signal decays as well.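 The cancer cells are triple-negative breast cancer lines of basal-like or mesenchymal-like type, grown without fibroblasts. A drop in red signal reflects loss of mitochondrial integrity, a stand-in for apoptotic death.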
